PubChem BioAssay AID1224830 – NIAID, 2016

Purpose: 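Host factors that control LPS-induced TNF expression in human macrophages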 (primary screen)
Cells: human THP-1 monocytic leukaemia cells, TNF dual-luciferase reporter clone, PMA-differentiated to macrophage-like cells
Reagents: siRNA pool against human genes, 50 nM
Time to read-out: LPS for 4 h, given about 3 days after siRNA transfection
Challenge: bacterial LPS (TLR4 ligand), 10 ng/ml
Measured: 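TNF firefly reporter luminescence divided by renilla, normalised to the plate median, then turned into a robust z-score for each replicate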
Direction: TNF reporter robust z-score: higher = stronger TNF reporter response to LPS
Active means: 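Each well counts as active if its z-score is over 2.8 or under -1.5; controls are left without a call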
Shown is an unselected part of about 18,000 reagents tested. In the full data, about 2,900 (16%) were called active. 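Calls are made per well; low scores hint the gene aids the LPS response, high scores that it dampens it.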 Repeated entries: four replicate wells of each siRNA pool.

no.	target gene	TNF reporter robust z-score	activity call
1	AKAP1 (A-kinase anchoring protein 1)	-0.28	inactive
2	AKAP1 (A-kinase anchoring protein 1)	-0.79	inactive
3	AKAP1 (A-kinase anchoring protein 1)	-1.39	inactive
4	AKAP1 (A-kinase anchoring protein 1)	-0.03	inactive
5	SULT1A4 (sulfotransferase family 1A member 4)	-1.02	inactive
6	SULT1A4 (sulfotransferase family 1A member 4)	-0.81	inactive
7	SULT1A4 (sulfotransferase family 1A member 4)	-0.2	inactive
8	SULT1A4 (sulfotransferase family 1A member 4)	0.03	inactive
9	LY86 (lymphocyte antigen 86)	-0.69	inactive
10	LY86 (lymphocyte antigen 86)	-0.51	inactive
11	LY86 (lymphocyte antigen 86)	0.17	inactive
12	LY86 (lymphocyte antigen 86)	-0.8	inactive
13	TAB1 (TGF-beta activated kinase 1 (MAP3K7) binding protein 1)	0.45	inactive
14	TAB1 (TGF-beta activated kinase 1 (MAP3K7) binding protein 1)	1.73	inactive
15	TAB1 (TGF-beta activated kinase 1 (MAP3K7) binding protein 1)	-1.21	inactive
16	TAB1 (TGF-beta activated kinase 1 (MAP3K7) binding protein 1)	-0.34	inactive
17	EMC3 (ER membrane protein complex subunit 3)	0.02	inactive
18	EMC3 (ER membrane protein complex subunit 3)	1.46	inactive
19	EMC3 (ER membrane protein complex subunit 3)	0.68	inactive
20	EMC3 (ER membrane protein complex subunit 3)	1.86	inactive
21	NSA2 (NSA2 ribosome biogenesis factor)	-0.13	inactive
22	NSA2 (NSA2 ribosome biogenesis factor)	-0.67	inactive
23	NSA2 (NSA2 ribosome biogenesis factor)	-0.33	inactive
24	NSA2 (NSA2 ribosome biogenesis factor)	0.1	inactive
25	IMP3 (IMP U3 small nucleolar ribonucleoprotein 3)	0.13	inactive
26	IMP3 (IMP U3 small nucleolar ribonucleoprotein 3)	0.34	inactive
27	IMP3 (IMP U3 small nucleolar ribonucleoprotein 3)	-0.71	inactive
28	IMP3 (IMP U3 small nucleolar ribonucleoprotein 3)	0.72	inactive
29	CTNNA3 (catenin alpha 3)	1.87	inactive
30	CTNNA3 (catenin alpha 3)	0.88	inactive
31	CTNNA3 (catenin alpha 3)	1.46	inactive
32	CTNNA3 (catenin alpha 3)	0.94	inactive
33	ADAM2 (ADAM metallopeptidase domain 2)	-0.94	inactive
34	ADAM2 (ADAM metallopeptidase domain 2)	0.04	inactive
35	ADAM2 (ADAM metallopeptidase domain 2)	-0.99	inactive
36	ADAM2 (ADAM metallopeptidase domain 2)	-0.35	inactive
37	IMPG1 (interphotoreceptor matrix proteoglycan 1)	0.34	inactive
38	IMPG1 (interphotoreceptor matrix proteoglycan 1)	0	inactive
39	IMPG1 (interphotoreceptor matrix proteoglycan 1)	0.31	inactive
40	IMPG1 (interphotoreceptor matrix proteoglycan 1)	0.91	inactive
41	HTR5A (5-hydroxytryptamine receptor 5A)	-0.67	inactive
42	HTR5A (5-hydroxytryptamine receptor 5A)	-0.63	inactive
43	HTR5A (5-hydroxytryptamine receptor 5A)	-0.64	inactive
44	HTR5A (5-hydroxytryptamine receptor 5A)	-0.2	inactive

Reprinted from above (4 entries):
no.	target gene	TNF reporter robust z-score	activity call
19	EMC3 (ER membrane protein complex subunit 3)	0.68	inactive
20	EMC3 (ER membrane protein complex subunit 3)	1.86	inactive
21	NSA2 (NSA2 ribosome biogenesis factor)	-0.13	inactive
22	NSA2 (NSA2 ribosome biogenesis factor)	-0.67	inactive

Next results follow.
no.	target gene	TNF reporter robust z-score	activity call
45	RBP3 (retinol binding protein 3)	-1.3	inactive
46	RBP3 (retinol binding protein 3)	0.34	inactive
47	RBP3 (retinol binding protein 3)	-0.85	inactive
48	RBP3 (retinol binding protein 3)	-1.23	inactive
49	FBXO44 (F-box protein 44)	3.04	active
50	FBXO44 (F-box protein 44)	1.32	inactive
51	FBXO44 (F-box protein 44)	0.36	inactive
52	FBXO44 (F-box protein 44)	1.93	inactive
53	NUP37 (nucleoporin 37)	0.47	inactive
54	NUP37 (nucleoporin 37)	-0.06	inactive
55	NUP37 (nucleoporin 37)	0.73	inactive
56	NUP37 (nucleoporin 37)	0.55	inactive
57	AFTPH (aftiphilin)	0.21	inactive
58	AFTPH (aftiphilin)	1.14	inactive
59	AFTPH (aftiphilin)	1.7	inactive
60	AFTPH (aftiphilin)	-0.75	inactive
61	AAK1 (AP2 associated kinase 1)	-1.68	active
62	AAK1 (AP2 associated kinase 1)	-1.72	active
63	AAK1 (AP2 associated kinase 1)	-1.87	active
64	AAK1 (AP2 associated kinase 1)	-1.26	inactive
65	HOXA7 (homeobox A7)	0.09	inactive
66	HOXA7 (homeobox A7)	0.18	inactive
67	HOXA7 (homeobox A7)	0.25	inactive
68	HOXA7 (homeobox A7)	1.33	inactive
69	ATF7IP2 (activating transcription factor 7 interacting protein 2)	-0.99	inactive
70	ATF7IP2 (activating transcription factor 7 interacting protein 2)	-1.09	inactive
71	ATF7IP2 (activating transcription factor 7 interacting protein 2)	-0.37	inactive
72	ATF7IP2 (activating transcription factor 7 interacting protein 2)	-0.09	inactive
73	CD55 (CD55 molecule (Cromer blood group))	-0.23	inactive
74	CD55 (CD55 molecule (Cromer blood group))	0.25	inactive
75	CD55 (CD55 molecule (Cromer blood group))	0.59	inactive
76	CD55 (CD55 molecule (Cromer blood group))	0.22	inactive
